These are yes or no findings as the source states them, for the method shown. Binding seen in cells or lysates may run through a third protein. Some results given as binding are weak or reduced against the parent protein; the word gives no strength.
Biological target: B-cell specific Moloney murine leukemia virus integration region 1 (BMI1) (human (endogenous in T24)) (UniProt P35226)
Assay: co-IP; T24 cells lysed; immunoprecipitated by anti-BMI1 and anti-p53 antibodies, immune complexes detected by anti-BMI1 and anti-p53, ECL

The chains behind the UniProt entries cited, without tags or fusion partners.
UniProt P35226: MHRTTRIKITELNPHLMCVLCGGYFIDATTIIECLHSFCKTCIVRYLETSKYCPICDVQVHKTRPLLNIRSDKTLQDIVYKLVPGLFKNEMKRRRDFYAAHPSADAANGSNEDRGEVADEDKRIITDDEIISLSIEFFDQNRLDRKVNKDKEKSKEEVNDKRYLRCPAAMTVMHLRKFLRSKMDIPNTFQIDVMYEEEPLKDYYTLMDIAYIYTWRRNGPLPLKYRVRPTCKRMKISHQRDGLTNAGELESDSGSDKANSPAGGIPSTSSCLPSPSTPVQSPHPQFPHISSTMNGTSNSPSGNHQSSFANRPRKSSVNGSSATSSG

- binding: binds
Substance: p53 (from UniProt P04637 1-393)
